One substance from PMC5549770 can be followed below.

These are yes or no findings as the source states them, for the method shown. Binding seen in cells or lysates may run through a third protein. Some results given as binding are weak or reduced against the parent protein; the word gives no strength.

The target in this experiment is T1, Hes1 expressed from pCDH-Hes1 in 293T cells (human) (UniProt Q14469).
T1 sequence: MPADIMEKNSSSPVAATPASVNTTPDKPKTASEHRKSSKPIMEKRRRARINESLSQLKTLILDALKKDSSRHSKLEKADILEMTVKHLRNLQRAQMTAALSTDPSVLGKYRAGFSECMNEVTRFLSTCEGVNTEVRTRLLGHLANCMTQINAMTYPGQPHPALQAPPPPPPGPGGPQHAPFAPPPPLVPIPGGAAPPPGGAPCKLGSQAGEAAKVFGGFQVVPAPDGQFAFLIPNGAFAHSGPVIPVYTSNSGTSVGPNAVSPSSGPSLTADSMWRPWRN
Kind of experiment: co-IP; lysates of co-transfected 293T cells (6μg of each plasmid, 48hpt); IE1-, Hes1- or Myc-directed IP, IB; normal IgG and vector controls.

Take “IE1 mutant Δ476–491 (pEYFP-IE1(Δ476–491)) (from UniProt P03169 1-475) (domain or fragment)”: the binding entry is “binds”.
